We go through 24 targets from the supplement of paper PMC10849652.

Protein sequences, listed by entry. Tags and fused reporters are not part of them. Lines headed by an entry give the natural chain unless they say otherwise; changes in a name come on top.
UniProt Q13546: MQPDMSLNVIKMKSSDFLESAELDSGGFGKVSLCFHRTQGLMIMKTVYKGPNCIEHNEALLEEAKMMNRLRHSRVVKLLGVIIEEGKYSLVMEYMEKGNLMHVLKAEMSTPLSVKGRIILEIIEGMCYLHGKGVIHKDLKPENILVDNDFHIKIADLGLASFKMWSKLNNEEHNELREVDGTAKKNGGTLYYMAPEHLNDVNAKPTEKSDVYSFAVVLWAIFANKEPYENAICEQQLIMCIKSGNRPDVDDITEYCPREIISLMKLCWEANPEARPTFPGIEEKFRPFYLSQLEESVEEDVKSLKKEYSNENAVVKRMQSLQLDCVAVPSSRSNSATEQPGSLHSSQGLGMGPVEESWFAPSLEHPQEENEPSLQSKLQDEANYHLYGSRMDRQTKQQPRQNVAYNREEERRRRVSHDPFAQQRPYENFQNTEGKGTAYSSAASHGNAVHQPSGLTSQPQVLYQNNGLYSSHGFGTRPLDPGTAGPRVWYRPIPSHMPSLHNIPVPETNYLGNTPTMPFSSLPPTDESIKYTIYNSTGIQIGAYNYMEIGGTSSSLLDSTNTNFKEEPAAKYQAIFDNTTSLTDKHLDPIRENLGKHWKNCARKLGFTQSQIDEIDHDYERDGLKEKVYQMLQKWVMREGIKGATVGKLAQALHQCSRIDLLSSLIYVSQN
UniProt O75695: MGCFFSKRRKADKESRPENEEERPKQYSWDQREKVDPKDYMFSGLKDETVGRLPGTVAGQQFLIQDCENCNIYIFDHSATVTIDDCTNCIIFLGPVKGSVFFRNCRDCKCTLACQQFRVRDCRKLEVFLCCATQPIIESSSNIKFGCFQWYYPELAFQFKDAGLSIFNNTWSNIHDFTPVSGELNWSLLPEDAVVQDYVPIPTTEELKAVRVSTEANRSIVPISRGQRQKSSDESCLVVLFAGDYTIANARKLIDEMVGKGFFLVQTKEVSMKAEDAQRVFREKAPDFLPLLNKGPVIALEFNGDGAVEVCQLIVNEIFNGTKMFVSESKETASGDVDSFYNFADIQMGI
UniProt Q96A37: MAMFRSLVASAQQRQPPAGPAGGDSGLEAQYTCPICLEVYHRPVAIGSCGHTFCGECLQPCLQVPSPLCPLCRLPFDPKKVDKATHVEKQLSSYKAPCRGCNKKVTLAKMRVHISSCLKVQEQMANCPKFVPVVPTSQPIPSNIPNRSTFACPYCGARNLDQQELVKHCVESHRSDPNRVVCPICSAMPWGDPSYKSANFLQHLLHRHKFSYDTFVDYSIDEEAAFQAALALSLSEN
UniProt O14730: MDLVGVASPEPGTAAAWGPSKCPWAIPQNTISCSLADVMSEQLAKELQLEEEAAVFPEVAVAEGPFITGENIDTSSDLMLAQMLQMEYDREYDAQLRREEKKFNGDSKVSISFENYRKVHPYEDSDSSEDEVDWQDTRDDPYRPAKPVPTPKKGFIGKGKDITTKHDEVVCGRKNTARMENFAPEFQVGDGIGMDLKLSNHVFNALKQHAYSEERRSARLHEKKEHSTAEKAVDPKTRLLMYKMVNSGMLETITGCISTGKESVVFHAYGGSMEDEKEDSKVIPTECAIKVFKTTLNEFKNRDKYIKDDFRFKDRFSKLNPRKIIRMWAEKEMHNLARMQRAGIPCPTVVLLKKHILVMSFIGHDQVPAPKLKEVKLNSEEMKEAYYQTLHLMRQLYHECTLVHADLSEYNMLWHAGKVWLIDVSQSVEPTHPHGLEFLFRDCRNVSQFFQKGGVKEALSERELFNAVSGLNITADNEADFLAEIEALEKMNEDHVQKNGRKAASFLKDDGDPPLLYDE
UniProt Q01974, whole entry, looked up: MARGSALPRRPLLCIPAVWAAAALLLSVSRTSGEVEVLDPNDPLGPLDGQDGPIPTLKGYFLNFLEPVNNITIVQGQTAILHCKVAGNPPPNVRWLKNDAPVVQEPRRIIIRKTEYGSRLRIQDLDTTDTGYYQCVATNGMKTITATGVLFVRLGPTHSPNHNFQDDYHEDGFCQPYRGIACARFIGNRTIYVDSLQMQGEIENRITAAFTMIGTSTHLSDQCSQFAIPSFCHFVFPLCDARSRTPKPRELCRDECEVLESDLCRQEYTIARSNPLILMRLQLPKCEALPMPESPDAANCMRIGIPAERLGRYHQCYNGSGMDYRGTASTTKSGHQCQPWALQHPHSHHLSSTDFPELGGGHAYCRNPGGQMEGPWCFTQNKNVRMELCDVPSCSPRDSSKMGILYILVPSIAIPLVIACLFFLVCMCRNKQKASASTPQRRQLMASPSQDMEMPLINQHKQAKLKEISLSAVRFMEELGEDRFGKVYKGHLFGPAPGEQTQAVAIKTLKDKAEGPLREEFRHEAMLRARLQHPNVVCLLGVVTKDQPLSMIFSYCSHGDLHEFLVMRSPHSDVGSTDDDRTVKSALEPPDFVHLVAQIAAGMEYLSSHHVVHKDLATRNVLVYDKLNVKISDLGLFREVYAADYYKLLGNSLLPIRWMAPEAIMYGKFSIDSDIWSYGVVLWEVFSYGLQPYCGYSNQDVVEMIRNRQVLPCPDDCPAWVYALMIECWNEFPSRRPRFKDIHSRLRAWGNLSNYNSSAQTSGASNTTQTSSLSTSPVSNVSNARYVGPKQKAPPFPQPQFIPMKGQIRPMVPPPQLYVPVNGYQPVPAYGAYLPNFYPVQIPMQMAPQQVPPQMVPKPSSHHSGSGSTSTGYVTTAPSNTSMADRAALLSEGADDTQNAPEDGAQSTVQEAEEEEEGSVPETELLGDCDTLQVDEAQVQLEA
UniProt Q9H6T3, whole entry, looked up: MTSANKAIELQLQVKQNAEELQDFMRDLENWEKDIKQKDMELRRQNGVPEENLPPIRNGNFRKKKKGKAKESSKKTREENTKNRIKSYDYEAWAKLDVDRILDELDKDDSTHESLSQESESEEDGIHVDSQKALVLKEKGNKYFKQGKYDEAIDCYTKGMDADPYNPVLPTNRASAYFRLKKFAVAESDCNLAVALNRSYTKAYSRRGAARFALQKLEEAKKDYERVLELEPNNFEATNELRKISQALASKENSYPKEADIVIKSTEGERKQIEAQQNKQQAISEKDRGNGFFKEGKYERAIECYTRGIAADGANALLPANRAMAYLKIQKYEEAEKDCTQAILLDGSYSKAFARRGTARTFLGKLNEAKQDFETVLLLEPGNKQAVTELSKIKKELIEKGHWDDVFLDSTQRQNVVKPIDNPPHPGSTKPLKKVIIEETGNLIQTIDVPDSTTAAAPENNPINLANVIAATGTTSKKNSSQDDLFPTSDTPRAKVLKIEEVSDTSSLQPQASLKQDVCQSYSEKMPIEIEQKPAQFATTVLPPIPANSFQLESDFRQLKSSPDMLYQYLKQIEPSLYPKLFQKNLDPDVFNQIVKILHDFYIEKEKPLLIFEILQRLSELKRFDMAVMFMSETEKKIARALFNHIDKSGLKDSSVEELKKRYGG
UniProt Q13464: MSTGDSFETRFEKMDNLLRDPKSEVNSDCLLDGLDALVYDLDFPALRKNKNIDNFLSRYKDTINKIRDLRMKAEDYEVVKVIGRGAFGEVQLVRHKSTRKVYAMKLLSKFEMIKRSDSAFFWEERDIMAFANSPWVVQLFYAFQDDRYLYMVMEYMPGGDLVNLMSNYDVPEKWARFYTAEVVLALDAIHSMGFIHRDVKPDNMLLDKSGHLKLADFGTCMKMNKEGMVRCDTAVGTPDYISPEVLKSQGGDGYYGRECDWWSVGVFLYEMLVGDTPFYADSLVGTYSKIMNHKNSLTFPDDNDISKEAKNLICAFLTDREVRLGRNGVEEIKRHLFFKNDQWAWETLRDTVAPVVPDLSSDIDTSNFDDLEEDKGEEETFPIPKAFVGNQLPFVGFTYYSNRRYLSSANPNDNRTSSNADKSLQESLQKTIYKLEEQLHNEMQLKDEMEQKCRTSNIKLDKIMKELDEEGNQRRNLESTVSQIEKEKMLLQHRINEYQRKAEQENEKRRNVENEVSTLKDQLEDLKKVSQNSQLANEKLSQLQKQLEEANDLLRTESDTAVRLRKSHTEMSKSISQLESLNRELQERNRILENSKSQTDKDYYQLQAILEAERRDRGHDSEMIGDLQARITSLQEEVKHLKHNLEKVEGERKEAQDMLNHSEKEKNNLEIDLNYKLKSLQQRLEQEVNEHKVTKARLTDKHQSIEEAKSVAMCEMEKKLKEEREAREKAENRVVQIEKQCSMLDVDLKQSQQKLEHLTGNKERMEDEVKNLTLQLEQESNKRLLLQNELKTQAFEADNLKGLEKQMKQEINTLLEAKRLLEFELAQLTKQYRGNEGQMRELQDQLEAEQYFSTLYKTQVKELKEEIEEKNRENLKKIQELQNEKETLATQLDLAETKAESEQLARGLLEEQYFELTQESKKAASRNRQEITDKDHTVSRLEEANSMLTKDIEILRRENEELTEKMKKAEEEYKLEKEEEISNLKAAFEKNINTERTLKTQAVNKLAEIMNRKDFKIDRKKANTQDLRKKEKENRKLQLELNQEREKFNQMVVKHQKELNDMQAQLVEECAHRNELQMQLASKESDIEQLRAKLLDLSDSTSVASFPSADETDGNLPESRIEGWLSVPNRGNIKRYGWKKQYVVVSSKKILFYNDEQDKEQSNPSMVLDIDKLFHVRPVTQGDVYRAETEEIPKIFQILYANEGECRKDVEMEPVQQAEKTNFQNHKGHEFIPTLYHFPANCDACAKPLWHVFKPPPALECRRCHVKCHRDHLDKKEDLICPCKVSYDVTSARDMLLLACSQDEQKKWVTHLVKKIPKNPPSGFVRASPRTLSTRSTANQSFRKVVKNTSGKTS
UniProt Q9BV68: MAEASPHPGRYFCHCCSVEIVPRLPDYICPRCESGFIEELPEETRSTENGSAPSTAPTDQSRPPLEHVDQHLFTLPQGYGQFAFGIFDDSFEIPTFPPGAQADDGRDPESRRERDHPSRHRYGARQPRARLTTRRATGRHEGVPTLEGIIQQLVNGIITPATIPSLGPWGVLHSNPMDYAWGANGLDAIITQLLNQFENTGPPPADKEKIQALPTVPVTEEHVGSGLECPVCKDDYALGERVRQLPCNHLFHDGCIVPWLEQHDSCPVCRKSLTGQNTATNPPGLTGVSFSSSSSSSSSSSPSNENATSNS
UniProt Q9UBS8: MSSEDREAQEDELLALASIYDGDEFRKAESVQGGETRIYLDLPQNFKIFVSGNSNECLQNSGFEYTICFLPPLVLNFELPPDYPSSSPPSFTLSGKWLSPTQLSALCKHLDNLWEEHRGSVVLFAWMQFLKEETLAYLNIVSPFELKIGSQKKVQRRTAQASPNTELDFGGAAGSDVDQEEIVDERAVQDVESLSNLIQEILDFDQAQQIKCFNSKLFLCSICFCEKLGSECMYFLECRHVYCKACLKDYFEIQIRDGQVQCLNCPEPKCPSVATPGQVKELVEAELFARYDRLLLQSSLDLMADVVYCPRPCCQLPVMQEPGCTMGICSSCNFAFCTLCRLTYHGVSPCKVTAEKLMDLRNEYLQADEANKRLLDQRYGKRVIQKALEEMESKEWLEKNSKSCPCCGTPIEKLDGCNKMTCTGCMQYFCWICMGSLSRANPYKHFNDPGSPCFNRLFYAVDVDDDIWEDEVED
UniProt Q9H7B2: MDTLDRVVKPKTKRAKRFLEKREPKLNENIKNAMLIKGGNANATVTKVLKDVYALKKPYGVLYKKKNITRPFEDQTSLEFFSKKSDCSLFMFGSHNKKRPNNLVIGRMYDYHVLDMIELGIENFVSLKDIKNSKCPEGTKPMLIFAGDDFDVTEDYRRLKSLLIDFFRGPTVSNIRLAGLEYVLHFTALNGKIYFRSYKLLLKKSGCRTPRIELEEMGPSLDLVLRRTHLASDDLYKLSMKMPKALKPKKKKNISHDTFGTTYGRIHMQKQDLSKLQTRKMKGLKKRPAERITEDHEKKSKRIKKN
UniProt Q96TC7: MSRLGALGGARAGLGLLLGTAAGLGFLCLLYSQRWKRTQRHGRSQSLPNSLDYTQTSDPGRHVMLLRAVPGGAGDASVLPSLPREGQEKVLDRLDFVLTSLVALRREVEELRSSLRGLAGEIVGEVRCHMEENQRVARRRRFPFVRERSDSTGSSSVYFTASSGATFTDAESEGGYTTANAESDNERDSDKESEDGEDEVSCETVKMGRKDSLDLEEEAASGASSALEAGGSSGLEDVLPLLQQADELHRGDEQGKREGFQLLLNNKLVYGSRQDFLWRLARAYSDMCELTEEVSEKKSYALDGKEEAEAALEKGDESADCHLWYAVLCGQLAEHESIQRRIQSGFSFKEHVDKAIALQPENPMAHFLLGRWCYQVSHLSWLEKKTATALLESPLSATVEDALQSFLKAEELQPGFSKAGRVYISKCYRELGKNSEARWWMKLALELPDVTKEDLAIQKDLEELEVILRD

The other results are listed elsewhere or left out.

Compound in the assay: CNC(=O)C1=CC=CC=C1NC2=NC(=NC=C2Cl)NC3=C(C=C(C=C3)N4CCOCC4)OC
Nature of the assay: log2 fold change, soluble protein after heating vs DMSO (PISA); higher = thermal stabilisation; K562 lysate, 10 uM; active = over 0.2 and 3.5 SD of the protein, either way, in both replicates (recomputed). In a few lines:
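Dounce homogenisation of K562 pellets in PBS pH 7.4 with 1 mM MgCl2 produced a crude extract, used at 1 mg/mL protein. Exposure to 10 μM compound lasted 30 min, and aliquots were then heated for 3 min across 48°C-58°C, pooled and brought to 0.5% NP-40 at 4°C. The supernatant after 21,000xg for 90 min was quantified by TMTpro 16plex LC-MS/MS with channel sums equalised. Duplicate values are given as log-two fold change in thermal stability relative to solvent controls.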
In the case of RPL36 (UniProt Q9Y3U8), the log2 fold change is inactive: -0.02.
The figure for RPL29 (UniProt P47914) is inactive: 0.02; for RIPK1 (UniProt Q13546) it is inactive: 0.044; for RP2 (UniProt O75695) it is inactive: 0.019.
The figure for RNF166 (UniProt Q96A37) is inactive: -0.071; for RPL10A (UniProt P62906) it is inactive: -0.006; for RIOK3 (UniProt O14730) it is inactive: 0.029.
The figure for RNF146 (UniProt Q9NTX7) is inactive: 0.025; for ROR2 (UniProt Q01974) it is inactive: -0.018; for RPL27 (UniProt P61353) it is inactive: -0.015.
RPAP3 (UniProt Q9H6T3): the log2 fold change is inactive: 0.036.
The figure for RIPK2 (UniProt O43353) is inactive: 0.042; for RPL35 (UniProt P42766) it is inactive: -0.033.
The figure for ROCK1 (UniProt Q13464) is inactive: -0.029.
The figure for RNF126 (UniProt Q9BV68) is inactive: 0.046; for RPL18 (UniProt Q07020) it is inactive: -0.016.
Take RPL34 (UniProt P49207): the log2 fold change is inactive: -0.017.
For the target RPL13A (UniProt P40429), the log2 fold change was inactive: -0.044.
The figure for RNF14 (UniProt Q9UBS8) is inactive: 0.022.
As to RNF168 (UniProt Q8IYW5), the log2 fold change was inactive: 0.068.
In the case of RPL3 (UniProt P39023), the log2 fold change is inactive: -0.007.
The figure for RPF2 (UniProt Q9H7B2) is inactive: 0.007; for RMDN3 (UniProt Q96TC7) it is inactive: 0.02; for RPL14 (UniProt P50914) it is inactive: 0.017.
